Binding data for one molecule are collected here from publication PMC9945542.

The chains behind the UniProt entries cited, without tags or fusion partners. Residues count along the entry.
UniProt P23818, residues 19-907: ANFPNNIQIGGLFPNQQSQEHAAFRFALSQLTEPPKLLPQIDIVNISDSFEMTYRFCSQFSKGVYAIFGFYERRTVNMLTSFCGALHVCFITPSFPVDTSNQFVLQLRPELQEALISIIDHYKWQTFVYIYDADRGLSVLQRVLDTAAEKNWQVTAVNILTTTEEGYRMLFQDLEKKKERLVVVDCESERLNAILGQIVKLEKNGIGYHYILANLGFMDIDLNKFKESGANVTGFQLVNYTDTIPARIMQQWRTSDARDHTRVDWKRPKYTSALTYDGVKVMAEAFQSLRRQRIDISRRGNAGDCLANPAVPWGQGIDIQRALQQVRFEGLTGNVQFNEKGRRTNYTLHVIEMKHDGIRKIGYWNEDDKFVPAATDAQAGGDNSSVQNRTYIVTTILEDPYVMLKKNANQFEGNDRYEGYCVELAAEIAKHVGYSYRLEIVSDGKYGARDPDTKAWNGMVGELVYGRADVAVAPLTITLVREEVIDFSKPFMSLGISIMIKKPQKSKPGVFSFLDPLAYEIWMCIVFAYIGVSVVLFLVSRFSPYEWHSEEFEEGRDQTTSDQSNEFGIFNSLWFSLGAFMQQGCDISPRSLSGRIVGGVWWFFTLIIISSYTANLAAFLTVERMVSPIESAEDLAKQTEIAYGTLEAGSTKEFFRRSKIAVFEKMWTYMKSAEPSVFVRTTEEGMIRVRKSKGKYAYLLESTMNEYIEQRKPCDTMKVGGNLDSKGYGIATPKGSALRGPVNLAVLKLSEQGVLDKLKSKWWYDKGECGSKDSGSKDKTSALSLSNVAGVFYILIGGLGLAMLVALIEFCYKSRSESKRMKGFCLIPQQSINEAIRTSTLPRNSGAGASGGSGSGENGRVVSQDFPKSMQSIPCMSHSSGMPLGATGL
UniProt P23819, residues 25-883: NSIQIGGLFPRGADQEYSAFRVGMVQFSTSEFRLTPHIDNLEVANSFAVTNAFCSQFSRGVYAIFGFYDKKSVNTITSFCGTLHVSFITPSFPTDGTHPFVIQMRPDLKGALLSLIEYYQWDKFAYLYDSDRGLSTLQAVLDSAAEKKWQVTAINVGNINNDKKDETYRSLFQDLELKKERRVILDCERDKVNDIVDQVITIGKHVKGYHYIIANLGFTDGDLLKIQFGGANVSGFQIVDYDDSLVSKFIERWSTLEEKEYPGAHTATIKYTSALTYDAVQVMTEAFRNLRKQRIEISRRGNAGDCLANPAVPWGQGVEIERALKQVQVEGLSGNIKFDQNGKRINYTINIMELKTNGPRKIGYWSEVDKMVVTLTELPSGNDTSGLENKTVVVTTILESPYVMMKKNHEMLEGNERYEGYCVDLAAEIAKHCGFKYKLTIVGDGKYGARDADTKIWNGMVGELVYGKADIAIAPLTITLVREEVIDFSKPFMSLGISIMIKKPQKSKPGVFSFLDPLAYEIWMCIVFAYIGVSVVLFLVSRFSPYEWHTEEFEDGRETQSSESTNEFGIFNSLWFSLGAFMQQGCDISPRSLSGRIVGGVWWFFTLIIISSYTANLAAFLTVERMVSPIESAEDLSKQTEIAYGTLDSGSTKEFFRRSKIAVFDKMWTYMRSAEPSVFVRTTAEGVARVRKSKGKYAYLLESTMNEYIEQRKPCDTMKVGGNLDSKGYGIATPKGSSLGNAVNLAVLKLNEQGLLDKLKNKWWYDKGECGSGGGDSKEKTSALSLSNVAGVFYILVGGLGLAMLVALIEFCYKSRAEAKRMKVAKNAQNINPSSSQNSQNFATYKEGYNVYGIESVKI

No constants are given. Whether binding was seen depends on the method and setting. In cells and extracts the contact can be indirect. Some results given as binding are weak or reduced against the parent protein; the word gives no strength.

Assay [1] deals with endogenous GluA1 (glutamate receptor 1) of mouse brain (mouse (endogenous in mouse brain)) (UniProt P23818). Description: co-IP; mouse brain tissue lysate; precipitated with 5 ug anti-CYLD, anti-GluA1 or anti-GluA2 antibody (IgG as control) overnight at 4°C, protein A + G agarose 3-4 h, three washes with cold lysis buffer; immunoblot.
Assay [2] has as its target endogenous GluA2 (glutamate receptor 2) of mouse brain (mouse (endogenous in mouse brain)) (UniProt P23819). Described as above.

B1: endogenous CYLD of mouse brain (enzyme, UniProt Q80TQ2 1-952)
chain: MSSGLWSQEKVTSPYWEERIFYLLLQECSVTDKQTQKLLKVPKGSIGQYIQDRSVGHSRVPSTKGKKNQIGLKILEQPHAVLFVDEKDVVEINEKFTELLLAITNCEERLSLFRNRLRLSKGLQVDVGSPVKVQLRSGEEKFPGVVRFRGPLLAERTVSGIFFGVELLEEGRGQGFTDGVYQGKQLFQCDEDCGVFVALDKLELIEDDDNGLESDFAGPGDTMQVEPPPLEINSRVSLKVGESTESGTVIFCDVLPGKESLGYFVGVDMDNPIGNWDGRFDGVQLCSFASVESTILLHINDIIPDSVTQERRPPKLAFMSRGVGDKGSSSHNKPKVTGSTSDPGSRNRSELFYTLNGSSVDSQQSKSKNPWYIDEVAEDPAKSLTEMSSDFGHSSPPPQPPSMNSLSSENRFHSLPFSLTKMPNTNGSMAHSPLSLSVQSVMGELNSTPVQESPPLPISSGNAHGLEVGSLAEVKENPPFYGVIRWIGQPPGLSDVLAGLELEDECAGCTDGTFRGTRYFTCALKKALFVKLKSCRPDSRFASLQPVSNQIERCNSLAFGGYLSEVVEENTPPKMEKEGLEIMIGKKKGIQGHYNSCYLDSTLFCLFAFSSALDTVLLRPKEKNDIEYYSETQELLRTEIVNPLRIYGYVCATKIMKLRKILEKVEAASGFTSEEKDPEEFLNILFHDILRVEPLLKIRSAGQKVQDCNFYQIFMEKNEKVGVPTIQQLLEWSFINSNLKFAEAPSCLIIQMPRFGKDFKLFKKIFPSLELNITDLLEDTPRQCRICGGLAMYECRECYDDPDISAGKIKQFCKTCSTQVHLHPRRLNHSYHPVSLPKDLPDWDWRHGCIPCQKMELFAVLCIETSHYVAFVKYGKDDSAWLFFDSMADRDGGQNGFNIPQVTPCPEVGEYLKMSLEDLHSLDSRRIQGCARRLLCDAYMCMYQSPTMSLYK
Take B1: the binding entry in assay [1] and in assay [2] was “binds” each time.
